Consider two sequences from PMC12561426.

The data set concerns BACH1 DBD of BACH1-sMafGχ + sMafG DBD of chimeras. The experiment in a line: EMSA. As to conditions: 150 mM NaCl, 50 mM HEPES pH 7.9, 10% glycerol, 1 mM TCEP, 1 mM DTT, 2 mM MgCl2, 3 nM DNA, TEV and 3C 50 ug/mL each, 4 h 25 °C, competition then O/N 4 °C, recombinant protein.

No signal at the amounts used counts as a negative. For at least one entry, the source does not settle the construct or the ends of the probe. Weaker means in comparison with the reference protein, sequence or condition of that experiment.

Consider “CTCGGGACCGTGACTCAGCAGGAAAAACAC (double strand) [HMOX1 CsMBE 30-mer]”, for which the binding result (incubation-first: 10 h at 4 °C without reducing agent, then DNA, dye on DNA not stated, label: 5' fluorescein on forward strand) was “no binding”.

As for “CTCGGGACCGTGACTCAGCAGGAAAAACAC (double strand) [HMOX1 CsMBE 30-mer, Cy5]”, the binding result (8 h non-reducing before DNA assembly, large binding reduction, dye not stated, label: Cy5 on forward strand) is “binds more weakly”.
